Drawing on paper PMC6117920, “Chitinase 3-like 1-CD44 interaction promotes metastasis and epithelial-to-mesenchymal transition through β-catenin/Erk/Akt signaling in gastric cancer” (Journal of Experimental & Clinical Cancer Research : CR, 2018), this text covers binding for two molecules.

In assay [1] the target is T1, recombinant human IL-13Rα2 ECD (human, UniProt Q14627 27-343).
T1 construct: Interleukin-13 receptor alpha 2, human, extracellular domain; also called rhIL-13Rα2 ECD; Interleukin-13 receptor alpha 2; source: bought: Sino Biological (Cat. #10350-H08H-20)
T1 sequence (looked up): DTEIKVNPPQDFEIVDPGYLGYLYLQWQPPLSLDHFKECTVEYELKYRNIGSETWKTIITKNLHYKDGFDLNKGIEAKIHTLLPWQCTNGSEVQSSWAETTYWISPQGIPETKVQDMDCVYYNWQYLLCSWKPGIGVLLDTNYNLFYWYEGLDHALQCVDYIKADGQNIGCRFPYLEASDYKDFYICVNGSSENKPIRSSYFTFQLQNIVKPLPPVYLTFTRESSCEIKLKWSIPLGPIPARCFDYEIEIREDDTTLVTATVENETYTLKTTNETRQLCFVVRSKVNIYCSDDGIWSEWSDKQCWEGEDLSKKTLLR
As to the kind of experiment: ELISA; direct ELISA; rhCHI3L1 or rhIL-13Rα2 ECD coated at 4 μg/ml in PBS; various concentrations of rhCD44v3 ECD added, 1 h at RT; detected with anti-CD44 antibody, absorbance at 450 nm; both purified. In general terms: ELISA stands for enzyme-linked immunosorbent assay.

Assay [2] concerns the target RhCD44s extracellular domain (ECD) (human). As to the kind of experiment: BLI; Octet K2; by the legend CD44s ECD was immobilized and CHI3L1 (500 μM) or IL-13Rα2 (500 μM) was in the mobile phase (the methods say rhCD44s ECD in the mobile phase); both purified. On the technique in general: BLI is a label-free optical method that tracks binding on a fibre tip over time.

Results are given in words; binding and its absence hold for the method and conditions named. For some assays here: Binding can be weak; no strength is given.

For the molecule “human CD44v3 ECD (21–310aa) (domain or fragment)”, in assay [1], the binding result is given as “binds”.

B1: recombinant human IL-13Rα2 ECD (domain or fragment, UniProt Q14627 27-343)
chain: T1 sequence (looked up)
As to B1, in assay [2], the binding entry was “no binding (tested: 500 μM)”.
